*: point of attachment. Fmoc = O=C(OCC1c2ccccc2-c2ccccc21)*
Test: general procedure: Fmoc solid-phase peptide synthesis; Fmoc-Gly-PEG PS resin; PAL-PEG-PS; PyBop, DIPEA
Details: whole synthesis, scale of the general procedure 0.1 mmol

Fmoc-WGGGACVRFGWTCSDRFRNCG-NH2 (cysteine pairing not given here)
final HPLC purity: >90%
